Data as given in PubChem BioAssay AID652243 (Drosophila RNAi Screening Center, 2013).
The deposit covers about 24,000 reagents; shown is a random part of those that have a named target and a result. In the full data, 246 (1%) were called active. 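Plates not normalised; calls are printed but the firefly/Renilla ratio behind them is not deposited; fold cut for lowering reported inconsistently.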 The raw values are shown without normalisation. Names joined by + are all predicted targets of the reagent. No sequences are given here. The record does not give: the amount of reagent.

Aim: 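Knock-downs that decrease or increase androgen receptor reporter signal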 (primary screen)
Cells: Drosophila S2R+ cells
Knock-down reagent: long dsRNA against Drosophila genes
Duration: 72 h (48 h, then 24 h hormone)
Challenge: synthetic androgen R1881 at 10 nM for 24 h
Measured: 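Firefly light from an androgen-responsive reporter and Renilla control light per well, raw and unnormalised, for each of two replicates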
Direction: firefly reporter light: higher = more light from androgen-responsive reporter; Renilla control light: higher = more constitutive control signal (cell number, transfection)
Active means: 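Hit when the log firefly-to-Renilla ratio dropped or increased by a fixed fold versus the mean of GFP or LacZ controls across duplicate plates; lowering cut given as 1.5 and as 3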
Meaning of the calls: active = hit: reporter lowered or raised; inactive = no hit

| target | DRSC id | firefly reporter light, replicate 1 | firefly reporter light, replicate 2 | Renilla control light, replicate 1 | Renilla control light, replicate 2 | activity call |
| --- | --- | --- | --- | --- | --- | --- |
| ed (GeneID 33619) | DRSC00350 | 5.76e5 | 6.41e5 | 1.98e6 | 1.94e6 | inactive |
| ed (GeneID 33619) | DRSC00438 | 1.49e5 | 93281 | 9.15e5 | 6.50e5 | inactive |
| ed (GeneID 33619) | DRSC00439 | 1.42e5 | 1.00e5 | 9.33e5 | 8.28e5 | inactive |
| ed (GeneID 33619) | DRSC00478 | 1.17e5 | 95324 | 8.61e5 | 8.73e5 | inactive |
| CG9806 (GeneID 31994) | DRSC18444 | 3.57e5 | 2.90e5 | 2.98e6 | 2.59e6 | inactive |
| CG9806 (GeneID 31994) | DRSC27417 | 2.32e5 | 3.60e5 | 6.53e5 | 6.36e5 | inactive |
| CG7886 (GeneID 41775) | DRSC16333 | 2.59e5 | 2.26e5 | 1.92e6 | 2.36e6 | inactive |
| Not10 (GeneID 41552) | DRSC14129 | 89677 | 63918 | 4.41e5 | 3.64e5 | inactive |
| Isha (GeneID 37411) | DRSC04456 | 8.68e5 | 5.98e5 | 2.35e6 | 1.96e6 | inactive |
| CG15676 (GeneID 37472) | DRSC04267 | 2.11e5 | 2.19e5 | 1.49e6 | 1.43e6 | inactive |
| CG15676 (GeneID 37472) | DRSC27015 | 6.64e5 | 5.06e5 | 4.04e5 | 2.94e5 | inactive |
| numb (GeneID 34263) | DRSC03584 | 8.97e5 | 7.90e5 | 1.87e6 | 1.48e6 | inactive |
| CG7763 (GeneID 36235) | DRSC07043 | 2.53e5 | 1.53e5 | 1.57e6 | 1.33e6 | inactive |
| gpp (GeneID 40793) | DRSC12515 | 30811 | 47181 | 9.10e5 | 1.15e6 | inactive |
| gpp (GeneID 40793) | DRSC28193 | 7.10e5 | 6.71e5 | 2.01e6 | 1.43e6 | inactive |
| JhI-26 (GeneID 36819) | DRSC06851 | 1.08e6 | 1.39e6 | 2.14e6 | 2.54e6 | inactive |
| JhI-26 (GeneID 36819) | DRSC27424 | 3.31e5 | 3.42e5 | 7.83e5 | 8.25e5 | inactive |
| CG2082 (GeneID 40713) | DRSC12125 | 84147 | 61770 | 4.35e5 | 3.35e5 | inactive |
| CG2082 (GeneID 40713) | DRSC26456 | 4.30e5 | 4.43e5 | 6.88e5 | 7.20e5 | inactive |
| Sse (GeneID 38640) | DRSC09746 | 5.27e5 | 4.99e5 | 7.04e5 | 9.67e5 | inactive |
| Buffy (GeneID 36251) | DRSC05957 | 3.49e5 | 3.24e5 | 2.06e6 | 1.79e6 | inactive |
| eas (GeneID 32585) | DRSC20329 | 6.35e5 | 4.60e5 | 3.89e6 | 3.19e6 | inactive |
| eas (GeneID 32585) | DRSC29435 | 6.27e5 | 7.43e5 | 1.02e6 | 1.02e6 | inactive |
| eas (GeneID 32585) | DRSC36996 | – | – | – | – | inactive |
| CG15198 (GeneID 32065) | DRSC19645 | 4.14e5 | 3.41e5 | 2.57e6 | 2.99e6 | inactive |
| gprs (GeneID 36862) | DRSC06761 | 76534 | 60462 | 1.40e6 | 1.40e6 | inactive |
| CG7789 (GeneID 43516) | DRSC16312 | 91181 | 1.01e5 | 8.65e5 | 6.72e5 | inactive |
| CG7789 (GeneID 43516) | DRSC39278 | – | – | – | – | inactive |
| Prosbeta7 (GeneID 40639) | DRSC12186 | 24677 | 14650 | 4.07e5 | 2.79e5 | inactive |
| CG14563 (GeneID 40435) | DRSC11724 | 2.24e5 | 89011 | 2.46e6 | 1.38e6 | inactive |
| Hsc70-2 (GeneID 41609) | DRSC16710 | 1.11e5 | 86889 | 1.46e6 | 1.21e6 | inactive |
| Hsc70-2 (GeneID 41609) | DRSC28457 | 1.82e5 | 2.48e5 | 3.48e5 | 7.58e5 | inactive |
| CG33511 (GeneID 3346223) | DRSC37783 | 8.61e5 | 7.18e5 | 2.30e6 | 1.16e6 | inactive |
| CG15308 (GeneID 50415) | DRSC17995 | 3.81e5 | 3.51e5 | 3.03e6 | 2.05e6 | inactive |
| CG10086 (GeneID 40920) | DRSC14183 | 1.37e5 | 1.55e5 | 2.13e6 | 2.14e6 | inactive |
| CG14096 (GeneID 40113) | DRSC26975 | 5.62e5 | 4.96e5 | 1.13e6 | 8.68e5 | inactive |
| nvd (GeneID 5740633) | DRSC22139 | 7.92e5 | 6.42e5 | 2.43e6 | 2.26e6 | inactive |
| nvd (GeneID 5740633) | DRSC26328 | 3.29e5 | 2.55e5 | 6.40e5 | 5.72e5 | inactive |

Continued, starting with the last 7 of the part before.
| target | DRSC id | firefly reporter light, replicate 1 | firefly reporter light, replicate 2 | Renilla control light, replicate 1 | Renilla control light, replicate 2 | activity call |
| --- | --- | --- | --- | --- | --- | --- |
| Hsc70-2 (GeneID 41609) | DRSC28457 | 1.82e5 | 2.48e5 | 3.48e5 | 7.58e5 | inactive |
| CG33511 (GeneID 3346223) | DRSC37783 | 8.61e5 | 7.18e5 | 2.30e6 | 1.16e6 | inactive |
| CG15308 (GeneID 50415) | DRSC17995 | 3.81e5 | 3.51e5 | 3.03e6 | 2.05e6 | inactive |
| CG10086 (GeneID 40920) | DRSC14183 | 1.37e5 | 1.55e5 | 2.13e6 | 2.14e6 | inactive |
| CG14096 (GeneID 40113) | DRSC26975 | 5.62e5 | 4.96e5 | 1.13e6 | 8.68e5 | inactive |
| nvd (GeneID 5740633) | DRSC22139 | 7.92e5 | 6.42e5 | 2.43e6 | 2.26e6 | inactive |
| nvd (GeneID 5740633) | DRSC26328 | 3.29e5 | 2.55e5 | 6.40e5 | 5.72e5 | inactive |
| Lk6 (GeneID 44672) | DRSC12867 | 4.84e5 | 3.17e5 | 95478 | 5.90e5 | inactive |
| Lk6 (GeneID 44672) | DRSC16728 | 52006 | 67029 | 4.39e5 | 6.07e5 | inactive |
| Lk6 (GeneID 44672) | DRSC24029 | 3.26e5 | 2.93e5 | 3.86e5 | 5.18e5 | active |
| Lk6 (GeneID 44672) | DRSC37028 | – | – | – | – | inactive |
| EMC7 (GeneID 36767) | DRSC07162 | 76573 | 85657 | 2.24e6 | 2.24e6 | active |
| Rich (GeneID 40456) | DRSC11607 | 34613 | 53542 | 3.45e5 | 3.51e5 | inactive |
| Rich (GeneID 40456) | DRSC28514 | 2.79e5 | 4.75e5 | 7.43e5 | 1.34e6 | inactive |
| mmy (GeneID 33903) | DRSC02002 | 2.58e5 | 3.79e5 | 8.61e5 | 7.66e5 | inactive |
| CG33673 (GeneID 3772423) | DRSC38938 | 8.36e5 | 8.40e5 | 2.23e6 | 1.87e6 | inactive |
| CG5199 (GeneID 40265) | DRSC11770 | 2.86e5 | 1.97e5 | 2.16e6 | 2.21e6 | inactive |
| IFT43 (GeneID 34676) | DRSC02892 | 9.71e5 | 7.59e5 | 2.35e6 | 2.20e6 | inactive |
| Sumo (GeneID 33981) | DRSC03611 | 1.31e6 | 1.60e6 | 1.70e6 | 1.96e6 | inactive |
| CG4598 (GeneID 34315) | DRSC02763 | 2.22e5 | 1.75e5 | 1.28e6 | 1.30e6 | inactive |
| CG9945 (GeneID 37329) | DRSC07347 | 1.63e5 | 1.01e5 | 1.07e6 | 1.03e6 | inactive |
| CG9945 (GeneID 37329) | DRSC28885 | 4.09e5 | 3.68e5 | 9.71e5 | 7.45e5 | inactive |
| CG34148 + P5CDh2 | DRSC13519 | 1.46e5 | 1.32e5 | 95163 | 1.09e5 | inactive |
| Ack-like (GeneID 36442) | DRSC07500 | 7.84e5 | 1.18e6 | 1.21e6 | 1.12e6 | inactive |
| Ack-like (GeneID 36442) | DRSC21845 | 6.80e5 | 5.99e5 | 1.18e6 | 8.43e5 | inactive |
| Ack-like (GeneID 36442) | DRSC28341 | 2.97e5 | 6.54e5 | 8.96e5 | 1.76e6 | inactive |
| Ack-like (GeneID 36442) | DRSC36683 | – | – | – | – | inactive |
| Ack-like (GeneID 36442) | DRSC36684 | – | – | – | – | inactive |
